The values below come from patent US20250145679A1.

No constants are given. Whether binding was seen depends on the method and setting. Some binding calls cover weakened binding; strength is not graded here.

The assay addresses T1, IL-2/15Rβ (CD122) ECD (human) (UniProt P14784).
T1 sequence: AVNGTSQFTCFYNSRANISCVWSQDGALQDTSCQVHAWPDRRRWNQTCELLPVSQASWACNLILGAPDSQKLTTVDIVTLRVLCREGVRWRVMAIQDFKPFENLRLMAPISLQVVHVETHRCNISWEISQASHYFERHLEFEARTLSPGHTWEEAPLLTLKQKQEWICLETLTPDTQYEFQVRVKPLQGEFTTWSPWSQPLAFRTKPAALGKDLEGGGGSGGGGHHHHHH
The experiment in a line: SPR, Biacore 8K.

B1: W327151-TXU1.P1-V0013.uIgG4V322 (Fc fusion)
chain 1: NWVNVISDLKKIEDLIQSMHIDATLYTESDVHPSCKVTAMKCFLLELQVISLESGDASIHDTVENLIILANNSLSSNGNVTESGCKECEELEEKNIKEFLQSFVHIVQMFESKYGPPCPPCPAPEAAGGPSVFLFPPKPKDTLMISRTPEVTCVVVDVSQEDPEVQFNWYVDGVEVHNAKTKPREEQFNSTYRVVSVLTVLHQDWLNGKEYKCKVSNKGLPSSIEKTISKAKGQPREPQVYTLPPCQEEMTKNQVSLWCLVKGFYPSDIAVEWESNGQPENNYKTTPPVLDSDGSFFLYSRLTVDKSRWQEGNVFSCSVMHEALHNHYTQKSLSLSLGK
chain 2: ITCPPPMSVEHADIWVKSYSLYSRERYICNSGFKRKAGTSSLTECVLNKATNVAHWTTPSLKCIRESKYGPPCPPCPAPEAAGGPSVFLFPPKPKDTLMISRTPEVTCVVVDVSQEDPEVQFNWYVDGVEVHNAKTKPREEQFNSTYRVVSVLTVLHQDWLNGKEYKCKVSNKGLPSSIEKTISKAKGQPREPQVCTLPPSQEEMTKNQVSLSCAVKGFYPSDIAVEWESNGQPENNYKTTPPVLDSDGSFFLVSRLTVDKSRWQEGNVFSCSVMHEALHNHYTQKSLSLSLGK
B1: the binding result is “binds”.
